{"source": "PubChem BioAssay AID1224828 (NIAID, 2016)", "screen": "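Regulators linking TLR4 signalling to p65 nuclear translocation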 (primary screen)", "cell system": "mouse RAW264.7 G9 macrophage reporter cells (GFP-p65, Tnf promoter-mCherry)", "reagents": "siRNA pool against mouse genes, 100 nM", "timing": "2 days siRNA transfection, then 40 min LPS before fixation", "conditions": "LPS (Salmonella minnesota R595) at 10 ng/ml", "measurement": "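Microscopy ratio of nuclear to perinuclear-ring GFP-p65 signal, scaled to the plate median; gene score is the average of two replicate robust z-scores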", "reading the numbers": "p65 translocation robust z-score: higher = more nuclear NF-kappaB p65 after LPS than the plate median; nuclear/cytoplasmic p65 ratio: higher = more nuclear NF-kappaB p65", "hit rule": "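Called active when z exceeds 3.3 or falls under -1.56 (median of Tlr4 controls), giving activity score of at least 50; no calls for control wells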", "calls": "active = hit (p65 shift raised or lowered); inactive = no clear change", "note": "This is one part, drawn at random, of about 17,000 reagents tested. 762 of all reagents (4.5%) count as active. 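Active calls include both raised and lowered p65 entry, mostly lowered; wells with fewer than 50 cells lack a z-score.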 Raw values are not corrected between plates. Entries without a mark were called inactive. No sequences are given here."}
{"gene symbol": "Serpini1", "p65 translocation robust z-score": 0.33, "nuclear/cytoplasmic p65 ratio, rep 1": 1.62, "nuclear/cytoplasmic p65 ratio, rep 2": 1.58, "low cell count flag": "enough cells to score"}
{"gene symbol": "Ccar1", "p65 translocation robust z-score": 0.07, "nuclear/cytoplasmic p65 ratio, rep 1": 1.62, "nuclear/cytoplasmic p65 ratio, rep 2": 1.78, "low cell count flag": "enough cells to score"}
{"gene symbol": "Rps14", "p65 translocation robust z-score": -1.39, "nuclear/cytoplasmic p65 ratio, rep 1": 1.19, "nuclear/cytoplasmic p65 ratio, rep 2": 1.1, "low cell count flag": "enough cells to score"}
{"gene symbol": "Cgrrf1", "p65 translocation robust z-score": -0.61, "nuclear/cytoplasmic p65 ratio, rep 1": 1.45, "nuclear/cytoplasmic p65 ratio, rep 2": 1.59, "low cell count flag": "enough cells to score"}
{"gene symbol": "Adpgk", "p65 translocation robust z-score": -0.46, "nuclear/cytoplasmic p65 ratio, rep 1": 1.4, "nuclear/cytoplasmic p65 ratio, rep 2": 1.4, "low cell count flag": "enough cells to score"}
{"gene symbol": "Tlr4", "p65 translocation robust z-score": "-2.38 (active)", "nuclear/cytoplasmic p65 ratio, rep 1": 0.99, "nuclear/cytoplasmic p65 ratio, rep 2": 1.08, "low cell count flag": "enough cells to score"}
{"gene symbol": "Mtmr4", "p65 translocation robust z-score": -0.51, "nuclear/cytoplasmic p65 ratio, rep 1": 1.22, "nuclear/cytoplasmic p65 ratio, rep 2": 1.28, "low cell count flag": "enough cells to score"}
{"gene symbol": "9530002B09Rik", "p65 translocation robust z-score": -0.48, "nuclear/cytoplasmic p65 ratio, rep 1": 1.39, "nuclear/cytoplasmic p65 ratio, rep 2": 1.45, "low cell count flag": "enough cells to score"}
{"gene symbol": "Six3os1", "p65 translocation robust z-score": -0.53, "nuclear/cytoplasmic p65 ratio, rep 1": 1.32, "nuclear/cytoplasmic p65 ratio, rep 2": 1.36, "low cell count flag": "enough cells to score"}
{"gene symbol": "A930025A13Rik", "p65 translocation robust z-score": 0.15, "nuclear/cytoplasmic p65 ratio, rep 1": 1.45, "nuclear/cytoplasmic p65 ratio, rep 2": 1.49, "low cell count flag": "enough cells to score"}
{"gene symbol": "Adam17", "p65 translocation robust z-score": 0.22, "nuclear/cytoplasmic p65 ratio, rep 1": 1.65, "nuclear/cytoplasmic p65 ratio, rep 2": 1.65, "low cell count flag": "enough cells to score"}
{"gene symbol": "Hes5", "p65 translocation robust z-score": 2.17, "nuclear/cytoplasmic p65 ratio, rep 1": 1.99, "nuclear/cytoplasmic p65 ratio, rep 2": 1.87, "low cell count flag": "enough cells to score"}
{"gene symbol": "Mrpl9", "p65 translocation robust z-score": 1.95, "nuclear/cytoplasmic p65 ratio, rep 1": 2.04, "nuclear/cytoplasmic p65 ratio, rep 2": 1.94, "low cell count flag": "enough cells to score"}
{"gene symbol": "Emc8", "p65 translocation robust z-score": -1.55, "nuclear/cytoplasmic p65 ratio, rep 1": 1.5, "nuclear/cytoplasmic p65 ratio, rep 2": 1.28, "low cell count flag": "enough cells to score"}
{"gene symbol": "Ihh", "p65 translocation robust z-score": 0.85, "nuclear/cytoplasmic p65 ratio, rep 1": 1.48, "nuclear/cytoplasmic p65 ratio, rep 2": 1.55, "low cell count flag": "enough cells to score"}
{"gene symbol": "Cplx2", "p65 translocation robust z-score": "-1.7 (active)", "nuclear/cytoplasmic p65 ratio, rep 1": 1.26, "nuclear/cytoplasmic p65 ratio, rep 2": 1.58, "low cell count flag": "enough cells to score"}
{"gene symbol": "Or4f57", "p65 translocation robust z-score": 1.47, "nuclear/cytoplasmic p65 ratio, rep 1": 1.83, "nuclear/cytoplasmic p65 ratio, rep 2": 1.47, "low cell count flag": "enough cells to score"}
{"gene symbol": "Rab34", "p65 translocation robust z-score": 0.72, "nuclear/cytoplasmic p65 ratio, rep 1": 1.42, "nuclear/cytoplasmic p65 ratio, rep 2": 1.34, "low cell count flag": "enough cells to score"}
{"gene symbol": "Adamts18", "p65 translocation robust z-score": -0.68, "nuclear/cytoplasmic p65 ratio, rep 1": 1.55, "nuclear/cytoplasmic p65 ratio, rep 2": 1.48, "low cell count flag": "enough cells to score"}
{"gene symbol": "Foxb1", "p65 translocation robust z-score": -0.63, "nuclear/cytoplasmic p65 ratio, rep 1": 1.35, "nuclear/cytoplasmic p65 ratio, rep 2": 1.3, "low cell count flag": "enough cells to score"}
{"gene symbol": "Fam20a", "p65 translocation robust z-score": 0.18, "nuclear/cytoplasmic p65 ratio, rep 1": 1.66, "nuclear/cytoplasmic p65 ratio, rep 2": 1.82, "low cell count flag": "enough cells to score"}

Reagents listed above called active:
{"gene symbol": "Tlr4", "p65 translocation robust z-score": "-2.38 (active)", "nuclear/cytoplasmic p65 ratio, rep 1": 0.99, "nuclear/cytoplasmic p65 ratio, rep 2": 1.08, "low cell count flag": "enough cells to score"}
{"gene symbol": "Cplx2", "p65 translocation robust z-score": "-1.7 (active)", "nuclear/cytoplasmic p65 ratio, rep 1": 1.26, "nuclear/cytoplasmic p65 ratio, rep 2": 1.58, "low cell count flag": "enough cells to score"}
